Reference: US10590166B2 (Allegro Pharmaceuticals, LLC, priority 2009, dated 2020)

Assay: general procedure: Fmoc solid-phase peptide synthesis; o-chlorotrityl resin; PyBOP/DIEA
Conditions: whole synthesis, UV@220 nm, area/area, scale of the general procedure 0.08 mmol

For “Cyclo-RG CYSTEIC ACIDysteic Acid fN(CH3)V”, the “final HPLC purity” value was over 99%.
